Experimental data from PubChem BioAssay AID493014 (National Center for Advancing Translational Sciences (NCATS), 2011).
Hit rate of the full screen: of about 340,000 compounds, about 170 (0.05%) were called active. The shares of active, inactive and inconclusive entries below differ from those in the screen. The call rests on the fitted dose curve; in most records, active means well fitted inhibition curve with a large enough effect in the signal ratio, with a control signal flat (not every such curve was filed as active); inconclusive means small, poorly fitted or top-dose-only effect, or effect the other way, or a change in a side signal; inactive means flat fitted curve, though single readings scatter; the % refers to the signal ratio. Potencies of inconclusive entries are doubtful fits and often do not repeat.

Assay: qHTS Assay to Find Inhibitors of Chronic Active B-Cell Receptor Signaling;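 on activity change, negative = inhibition: plate controls were basal doxycycline-induced cells for no effect and cells given 10 µM MG132 for full effect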
Conditions: ABC-DLBCL IkBa-CBG/CBR reporter, luminescence ratio (green luciferase fused to IkBa over red control in TMD8 lymphoma cells), 4 h; activity change, negative = inhibition: at 46.1 µM (top of the series)
Outline: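 Cell line TMD8 (human ABC DLBCL), stably expressing tet-inducible CBG68-IkBa fusion and CBR; IMDM/0.5% FBS; cpd up to 46 uM; dox induction, 4 h, 37C/5% CO2; dual luminescence; green/red ratio; MG132 control.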
Potency means the concentration at half of the fitted maximal effect.

Compound | Potency | activity change, negative = inhibition
O=C(NNC(=O)c1ccccc1C(=O)O)c1cc2ccccc2o1 | inconclusive: 35.5 µM [falling, single point] | –
CCC(C)Cn1c(C)nc2ccccc21 (stereo unspecified) | – | inconclusive: 0.545%
O=C(Cn1nnc2c(cnn2-c2ccc(F)cc2)c1=O)c1ccccc1F | – | inconclusive: 5.37%
Cc1cc(C(F)(F)F)nn1CC(=O)NNC(=S)Nc1cccc(Cl)c1 | – | inactive: 15.1%
O=C(/C=C\NCC(=O)c1ccccc1)c1ccc(F)cc1 | inconclusive: 35.5 µM [rising, partial curve, poor fit] | –
O=C(Nc1ccc2c(c1)OCO2)C1CCCN1C(=O)OCc1ccccc1 (stereo unspecified) | – | inconclusive: 3.91%
CCN(CC)C(=O)CSc1nnc(-c2cccc(OC)c2)o1 | – | inconclusive: 3.21%
CCOC(=O)c1cnn(-c2ccccc2)c1-n1cccc1C(=O)C(=O)Nc1ccc(F)cc1 | inconclusive: 6.31 µM [falling, partial curve] | –
CCOC(=O)c1ccc(NC(=O)C2=C(C)Nc3nc(CCCO)nn3C2c2ccc(OC)cc2)cc1 (stereo unspecified) | – | inconclusive: 3.05%
CC12CC3CC(C)(C1)CC(C(=O)NCc1ccco1)(C3)C2 | – | inconclusive: -0.703%
Cc1sc(NC(=O)CN(Cc2ccc(F)cc2)C(=O)C(C)C)c(C(N)=O)c1C | inconclusive: 0.316 µM [falling, full curve, poor fit] | –
O=C(NNC(=O)c1ccccc1[N+](=O)[O-])Nc1ccc(Cl)cc1 | – | inconclusive: -14.1%
O=C(CSc1ncccn1)NCCC1=CCCCC1 | – | inconclusive: -1.52%
Cc1cc(OC(=O)c2ccccc2F)c([N+](=O)[O-])c(=O)[nH]1 | – | inactive: -0.649%
Cn1ccsc1=NC(=O)c1cccc(OC(F)F)c1 | – | inconclusive: -1.63%
COc1ccccc1NC(=S)NC(=O)c1ccc(Cn2cc(Br)cn2)cc1 | – | inconclusive: 0.254%
COc1ccc(N(CC2CO2)S(=O)(=O)c2ccccc2)cc1 (stereo unspecified) | – | inactive: -6.16%
COc1ccc2oc(=O)c(C(=O)n3ccc(C)n3)cc2c1 | – | inconclusive: -1.9%
Cn1ccs/c1=N\C(=O)Nc1cccc(Cl)c1 | inconclusive: 31.6 µM [falling, single point] | –
COc1ccc(CCC(=O)NC2CC(=O)N(c3ccc(OC)cc3)C2)cc1 (stereo unspecified) | – | inactive: -6.13%
COc1ccccc1OCCC(=O)OCC(=O)Nc1ccc(Br)cc1 | – | inconclusive: -16.6%

Compound | Potency | activity change, negative = inhibition
C/C(=N\NC(=S)NCc1ccccc1)c1ccc(Cl)cc1 | inconclusive: 23.1 µM [falling, partial curve, poor fit] | –
CC(=O)N1CCC(=NNc2ccc(S(=O)(=O)N3CCOCC3)cc2[N+](=O)[O-])CC1 | inconclusive: 23.1 µM [falling, partial curve, poor fit] | –
Cc1ccc(S(=O)(=O)c2c(N)n(NC(=O)c3ccco3)c3nc4ccccc4nc23)cc1 | – | inconclusive: 7.15%
Cc1ccc(C(=O)N2c3ccc(F)cc3CCC2C)o1 (stereo unspecified) | – | inconclusive: -0.072%
COC(=O)c1sccc1NC(=O)COc1cccc(C)c1 | inconclusive: 10 µM [falling, partial curve, poor fit] | –
O=C(CC1NCCNC1=O)Nc1cccc([N+](=O)[O-])c1 (stereo unspecified) | – | inconclusive: 1.82%
COc1cc2c(cc1OC)C(c1cc3ccc(C)cc3[nH]c1=O)N(C(=O)c1ccco1)CC2 (stereo unspecified) | – | inactive: -27.7%
CCC(=O)N1CCc2cc(CNC(=O)c3ccc(F)cc3)ccc21 | – | inactive: -9.91%
CCN1CCN(c2cc(C)c3cc(NC(=O)c4ccncc4)ccc3n2)CC1 | – | inactive: -0.312%
COC(=O)c1ccccc1NC(=O)COC(=O)[C@H](C)NC(N)=O | inconclusive: 22.4 µM [falling, single point] | –
CC1(C)CC2(CC(c3cccs3)c3cc(Cl)c(O)cc3O2)NC(=S)N1 (stereo unspecified) | – | inconclusive: -10.3%
COc1ccc(-n2nnnc2SCC(=O)Nc2cccc(NC(C)=O)c2)cc1OC | – | inconclusive: -8.94%
O=c1cnn(-c2ccc(Cl)cc2Cl)c(-c2ccccc2)c1 | – | inconclusive: 17.9%
COc1ccccc1NC(=O)Cn1cc(C(=O)c2ccco2)c2ccccc21 | – | inconclusive: -11.5%
O=C(Cn1nnc(-c2cccc(C(F)(F)F)c2)n1)NC(=O)NCc1ccco1 | inconclusive: 35.5 µM [falling, single point] | –
Cn1cc(S(=O)(=O)N2CCN(c3ccccc3F)CC2)c(=O)n(C)c1=O | inconclusive: 29.1 µM [falling, single point] | –
CCOC(=O)C(NC(C)=O)(NC(C)C)C(F)(F)F (stereo unspecified) | – | inconclusive: -0.638%
O=c1c2ccccc2nc(/C=C/c2cccnc2)n1CCc1ccccc1 | – | inconclusive: 0.0452%
COc1ccccc1-c1noc(-c2cccs2)n1 | – | inconclusive: -24.8%
CCn1cc(C(=O)Nc2ccc(C(=O)N3CCCC3)cc2)c(=O)c2ccc(C)nc21 | – | inconclusive: 5.27%
Cc1ccc(SCCNC(=S)Nc2ccc(C)cc2C)cc1 | – | inactive: 0.131%

Reprinted from the listing, 2 compounds:
Compound | Potency | activity change, negative = inhibition
Cc1cc(C(F)(F)F)nn1CC(=O)NNC(=S)Nc1cccc(Cl)c1 | – | inactive: 15.1%
O=C(/C=C\NCC(=O)c1ccccc1)c1ccc(F)cc1 | inconclusive: 35.5 µM [rising, partial curve, poor fit] | –

More compounds follow:

Compound | Potency | activity change, negative = inhibition
CCOc1ccccc1Nc1nc(N)nc(CN2CCCCC2C)n1 (stereo unspecified) | – | inconclusive: 16.4%
O=C(CCSCCc1ccccn1)Nc1nccs1 | – | inconclusive: -9.04%
C=CC[C@@H](CC(=O)N[C@@H](CO)Cc1ccccc1)C(=O)N[C@H](COC(=O)[C@@H](CC=C)Cc1ccc(F)cc1)C(C)(C)C | – | inconclusive: -1.89%
c1ccc(N2CCN(Cc3cn4cccnc4n3)CC2)cc1 | – | inactive: -0.413%
COc1ccc(CN(CC2CCC(C(=O)O)CC2)C(=S)Nc2ccccc2OC)cc1 (stereo unspecified) | – | inconclusive: -23.5%
COc1cc(C2C(=O)N(C3CCCCC3)CC(=O)N2C2CCCCC2)ccc1OC(C)C (stereo unspecified) | – | inactive: 2.32%
COc1cc(C(=O)NCCc2cc3c(OC)ccc(OC)c3[nH]c2=O)cc(OC)c1OC | inconclusive: 20 µM [falling, partial curve, poor fit] | –
COC(=O)c1ccccc1NC(=S)NC(=O)CC(C)C | inconclusive: 11.2 µM [falling, partial curve] | –
Oc1ccc(-c2nccc(-c3ccc(Cl)cc3Cl)n2)cc1 | – | inconclusive: 12.9%
Cc1cc(C)nc(N/N=C/c2ccc3c(c2)OCCO3)n1 | – | inconclusive: -1.87%
CCC(=O)Nc1ccc(C(=O)CN2C(=O)NC3(CCOc4ccccc43)C2=O)cc1 (stereo unspecified) | – | inconclusive: -3.94%
CCn1c(-c2cc(-c3ccc(C)c(C)c3)nc3ccccc23)n[nH]c1=S | – | inactive: 21.2%
CCc1nc2nc(C)c(NS(=O)(=O)c3ccc(Cl)cc3)c(=O)n2[nH]1 | – | inactive: -2.48%
N=C1C(c2nc3ccccc3s2)=C(O)CN1NC(=O)c1ccc([N+](=O)[O-])cc1 | inconclusive: 22.4 µM [falling, single point] | –
N=c1c2c(n(Cc3ccc(Cl)c(Cl)c3)c3c1CCC3)CCCC2 | – | inactive: -11.1%
CCn1c(C)nc2cc(C(=O)N/N=C(\C)c3ccccc3O)ccc21 | – | inactive: -0.223%
COc1cc(/C=N\NC(=O)c2sc(N)nc2C)cc(OC)c1OC | inconclusive: 11.2 µM [falling, partial curve, poor fit] | –
COc1ccc(NC(=O)/C(C#N)=C\c2ccc(-c3cc(C(=O)O)ccc3C)o2)cc1 | – | inactive: -2.83%
CCOC(=O)c1ccc(-n2ccnc2)c(NC(=O)c2cccc(Br)c2)c1 | inconclusive: 16.4 µM [falling, partial curve] | –
COc1ccc(-c2cc(=O)c3c(O)cc(O)cc3o2)cc1 | inconclusive: 1.16 µM [rising, full curve, poor fit] | –
Cc1nnsc1SCCNC(=O)Nc1ccc(Cl)cc1 | – | inconclusive: 1.92%

Compound | Potency | activity change, negative = inhibition
O=[N+]([O-])c1ccc(-c2cn3c(n2)CCC3)cc1 | – | inconclusive: 10.1%
COc1ccc(NC(=O)NNC(=O)C(C)Oc2ccc(C(C)C)cc2)c(OC)c1 (stereo unspecified) | inconclusive: 22.4 µM [falling, single point] | –
CC(NC(=O)CSc1nc2ccccc2c(=O)n1CCCO)c1ccccc1 (stereo unspecified) | – | inconclusive: 5.14%
COc1cc(NC(C)=O)c2ncccc2c1NC(C)=O | – | inconclusive: 3.21%
COc1cccc(CC2(CO)CCN(S(=O)(=O)N(C)C)CC2)c1 | – | inconclusive: 0.822%
CCCCCc1cc(=O)oc2c(C(CCN3CCCC(C)C3)c3ccc4c(c3)OCO4)c(OC)cc(OC)c12 (stereo unspecified) | inconclusive: 35.5 µM [falling, partial curve, poor fit] | –
CCOc1ccc2nc(/N=C/c3nc(-c4ccc(Br)cc4)oc3O)sc2c1 | – | inactive: -15.6%
CCOC(=O)N1CCN(C(=O)CSc2nc3c([nH]c4ccccc43)c(=O)n2CC)CC1 | – | inconclusive: 4.36%
Cc1ccc(NS(=O)(=O)c2ccc3c(c2)oc(=O)n3C)cc1F | inconclusive: 29.1 µM [falling, single point] | –
CCOc1ccc(CSC(=N)N)cc1Cl | inconclusive: 11.2 µM [falling, partial curve] | –
Cc1ccc(C)n1CCN1CCN(C(=O)CC#N)CC1 | – | inconclusive: 5.61%
CC(=O)Nc1ccc(C(=O)Nc2ccc(S(=O)(=O)N3CCCCC3)cc2)cc1 | – | inactive: -12%
CC(=O)N(Cc1cc(=O)[nH]c2ccccc12)c1ccccc1C | – | inconclusive: -4.59%
O=[N+]([O-])c1ccc(NC(=S)NCCc2ccc(Cl)cc2)cc1 | – | inconclusive: 28%
NC(=O)C1CCCN(C(=O)c2ccc(Cl)cc2)C1 (stereo unspecified) | – | inactive: 2.16%
COc1cc(/C=C2\SC(=O)NC2=O)ccc1Oc1ccc([N+](=O)[O-])cc1[N+](=O)[O-] | – | inconclusive: 9.78%
CCN(CC)S(=O)(=O)c1cc(Br)c(C)cc1OC | – | inconclusive: -5.14%
CC(=O)c1cccc(NC(=O)Nc2csc3c2CCCC3)c1 | inconclusive: 1 µM [falling, partial curve, poor fit] | –

Quoted at random: 2 records from the list.
Compound | Potency | activity change, negative = inhibition
COc1cccc(CC2(CO)CCN(S(=O)(=O)N(C)C)CC2)c1 | – | inconclusive: 0.822%
CC(=O)c1cccc(NC(=O)Nc2csc3c2CCCC3)c1 | inconclusive: 1 µM [falling, partial curve, poor fit] | –
